Source: US20050079503A1, “Binding domain of Siah (seven in absentia homolog) protein” (PETER MacCALLUM CANCER INSTITUTE, ST. VINCENT'S INSTITUTE …, priority 2001, published 2005)
Results are given in words; binding and its absence hold for the method and conditions named. Some binding calls cover weakened binding; strength is not graded here. Sequences can lack the tags named with a protein.

T1: MBP-Siah (UniProt P61092)
T1 sequence (looked up): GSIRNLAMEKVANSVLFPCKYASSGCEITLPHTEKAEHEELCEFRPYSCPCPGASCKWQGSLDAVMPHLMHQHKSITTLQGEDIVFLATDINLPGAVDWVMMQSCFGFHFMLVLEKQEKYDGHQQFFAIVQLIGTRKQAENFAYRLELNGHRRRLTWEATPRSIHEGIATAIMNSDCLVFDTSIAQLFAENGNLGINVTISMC


The binders below were run against T1, MBP-Siah (assay: competition ELISA: peptide competes with plate-bound GST-PHYL108-130 for MBP-Siah; anti-MBP and HRP antibody, ABTS).

binding	Binder
binds	QQEATKLRPVAMVRPTVRVQPQL [R (bar 4 of FIG 27)]
binds	AQERTKLRPVAMVRPTVRVQPQL [Q (bar 1 of FIG 27)]
binds	QQERTKLRPVAMVAPTVRVQPQL [R (bar 14 of FIG 27)]
binds	QQERAKLRPVAMVRPTVRVQPQL [T (bar 5 of FIG 27)]
binds	QQERTKLRPVAMVRPTARVQPQL [V (bar 17 of FIG 27)]
binds	QQERTKLRPVAMVRPTVAVQPQL [R (bar 18 of FIG 27, asterisk)]
binds	QQERTKLRPVAMVRPTVRVQPAL [Q (bar 22 of FIG 27)]
binds	QQERTKLRPVAMVRPTVRAQPQL [V (bar 19 of FIG 27)]
binds	QQERTKLAPVAMVRPTVRVQPQL [R (bar 8 of FIG 27, asterisk)]
binds	QQERTKLRPVAMVRPTVRVAPQL [Q (bar 20 of FIG 27)]
binds	QQERTKLRPVAMVRPAVRVQPQL [T (bar 16 of FIG 27)]
binds	QAERTKLRPVAMVRPTVRVQPQL [Q (bar 2 of FIG 27)]

The remaining lines, values behind:

Binder	binding
QQERTKLRPVAMVRPTVRVQAQL [P (bar 21 of FIG 27)]	binds
QQERTKLRPVGMVRPTVRVQPQL [A (bar 11 of FIG 27, asterisk)]	binds
QQERTALRPVAMVRPTVRVQPQL [K (bar 6 of FIG 27)]	binds
QQERTKLRAVAMVRPTVRVQPQL [P (bar 9 of FIG 27)]	binds
QQERTKLRPVAMVRPTVRVQPQA [L (bar 23 of FIG 27)]	binds
QQERTKARPVAMVRPTVRVQPQL [L (bar 7 of FIG 27)]	binds
QQARTKLRPVAMVRPTVRVQPQL [E (bar 3 of FIG 27)]	binds
QQERTKLRPVAAVRPTVRVQPQL [M (bar 12 of FIG 27)]	binds
